Counter-ions that a name gives are not always drawn. The list shows a part of the results. Many values rest on one well or one pass, so single values are uncertain.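 Three clinical Candida auris isolates (clades III, IV and I) from the CDC resistance isolate bank were grown in RPMI-1640 at 35°C. Growth was background-corrected OD600 relative to same-plate vehicle-only wells. Hits required over 50% inhibition in at least two strains and a plate-corrected B-score above 0.1.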
How the values were obtained:
Test in all cases: growth relative to vehicle control (OD600 ratio) (fraction); higher = less inhibition
Conditions in all cases: 24 h
[1] = test system: C. auris AR-384
[2] = test system: C. auris AR-386
[3] = test system: C. auris AR-387

Row | Compound | growth ([1]; 1 µM) | growth ([1]; 10 µM) | growth ([2]; 1 µM) | growth ([2]; 10 µM) | growth ([3]; 1 µM) | growth ([3]; 10 µM)
1 | CN(C)[C@@H]1C(O)=C(C(N)=O)C(=O)[C@@]2(O)C(O)=C3C(=O)c4c(O)cccc4[C@@](C)(O)[C@H]3[C@H](O)[C@@H]12 [Oxytetracycline Dihydrate] | 1.01 | 1.02 | 0.83 | 0.57 | 0.83 | 0.77
2 | CCCc1nn(C)c2c(=O)[nH]c(-c3cc(S(=O)(=O)N4CCN(C)CC4)ccc3OCC)nc12 [Sildenafil Mesylate] | 0.9 | 0.9 | 0.72 | 0.97 | 0.6 | 0.87
3 | CC(=O)[C@H]1CC[C@H]2[C@@H]3CCC4=CC(=O)CC[C@]4(C)[C@H]3CC[C@]12C [Progesterone] | 0.93 | 0.61 | 0.96 | 1.15 | 0.98 | 0.79
4 | CC1(C)O[C@@H]2C[C@H]3[C@@H]4CCC5=CC(=O)C=C[C@]5(C)[C@@]4(F)[C@@H](O)C[C@]3(C)[C@]2(C(=O)CO)O1 [Triamcinolone Acetonide] | 0.92 | 0.82 | 0.78 | 0.63 | 0.85 | 0.63
5 | COCCCOc1cc(C[C@@H](C[C@H](N)[C@@H](O)C[C@H](C(=O)NCC(C)(C)C(N)=O)C(C)C)C(C)C)ccc1OC [Aliskiren Hemifumarate] | 0.77 | 0.82 | 1 | 0.95 | 1.03 | 0.95
6 | CC(C(O)c1ccc(O)cc1)N1CCC(Cc2ccccc2)CC1 (stereo not given) [Ifenprodil Tartrate] | 0.89 | 0.9 | 1.08 | 1.1 | 1.11 | 1.07
7 | O=C(O)CSc1nnc(Br)n1-c1ccc(C2CC2)c2ccccc12 [Lesinurad] | 0.88 | 0.83 | 0.86 | 0.83 | 0.72 | 0.7
8 | O=C(O)CCCN1CCC(O[C@@H](c2ccc(Cl)cc2)c2ccccn2)CC1 [Bepotastine Besilate] | 0.79 | 0.87 | 0.96 | 1.11 | 0.89 | 0.94
9 | CC1(C)CCC(c2ccc(Cl)cc2)=C(CN2CCN(c3ccc(C(=O)NS(=O)(=O)c4ccc(N[C@H](CCN5CCOCC5)CSc5ccccc5)c(S(=O)(=O)C(F)(F)F)c4)cc3)CC2)C1 [Navitoclax (ABT-263)] | 1.27 | 1 | 0.69 | 1.19 | 0.91 | 1.09
10 | COc1c(C)c2c(c(O)c1C/C=C(\C)CCC(=O)OCCN1CCOCC1)C(=O)OC2 [Mycophenolate Mofetil] | 0.94 | 1.32 | 1.39 | 0.84 | 1.07 | 1.05
11 | CCN(CC)CCOC(=O)C1(C2CCCCC2)CCCCC1 [Dicyclomine HCl] | 1.13 | 1.36 | 1.1 | 1.21 | 0.78 | 1.26
12 | Cc1nc(=O)c2cc(CN(C)c3ccc(C(=O)N[C@@H](CCC(=O)O)C(=O)O)s3)ccc2[nH]1 [Raltitrexed] | 1.14 | 1.28 | 1.23 | 1.35 | 1.26 | 1.28
13 | O=C(O)CCCc1ccccc1 [Sodium Phenylbutyrate] | 0.91 | 0.77 | 0.92 | 1.09 | 0.76 | 0.75
14 | CO[C@H]1O[C@H](COS(=O)(=O)O)[C@@H](O[C@@H]2O[C@@H](C(=O)O)[C@@H](O[C@H]3O[C@H](COS(=O)(=O)O)[C@@H](O[C@@H]4O[C@H](C(=O)O)[C@@H](O[C@H]5O[C@H](COS(=O)(=O)O)[C@@H](O)[C@H](O)[C@H]5NS(=O)(=O)O)[C@H](O)[C@H]4O)[C@H](OS(=O)(=O)O)[C@H]3NS(=O)(=O)O)[C@H](O)[C@H]2OS(=O)(=O)O)[C@H](O)[C@H]1NS(=O)(=O)O [Fondaparinux Sodium] | 0.62 | 0.61 | 0.86 | 0.89 | 1.07 | 0.66
15 | CC(C)=CCC/C(C)=C/CC/C(C)=C/CSc1ccccc1C(=O)O [Salirasib] | 1.27 | 0.71 | 0.95 | 0.65 | 0.8 | 1.25
16 | COc1ccnc(C[S+]([O-])c2nc3cc(OC(F)F)ccc3[nH]2)c1OC (stereo not given) [Pantoprazole] | 0.78 | 1.06 | 0.86 | 1.04 | 0.89 | 0.63
17 | COC(=O)[C@@H]1CC2=CC(=O)CC[C@]2(C)[C@@]23O[C@@H]2C[C@@]2(C)[C@@H](CC[C@@]24CCC(=O)O4)[C@H]13 [Eplerenone] | 0.97 | 1.21 | 1.17 | 1.53 | 1.12 | 1.34
18 | C[C@H](Cn1cnc2c(N)ncnc21)OCP(=O)(O)O [Tenofovir] | 0.84 | 0.99 | 1.03 | 1.03 | 0.95 | 0.78
19 | CCCC(=O)O[C@]1(C(=O)COC(C)=O)CC[C@H]2[C@@H]3C[C@H](F)C4=CC(=O)C=C[C@]4(C)[C@@]3(F)[C@@H](O)C[C@@]21C [Difluprednate] | 1 | 0.66 | 0.78 | 0.62 | 0.78 | 0.7
20 | CC(C)(S)[C@@H](N)C(=O)O [Penicillamine] | 1.04 | 1.37 | 0.98 | 1.03 | 1.12 | 1.08
21 | Cc1ccsc1C(=CCCN1CCC[C@@H](C(=O)O)C1)c1sccc1C [Tiagabine hydrochloride] | 0.76 | 1.03 | 0.95 | 0.89 | 0.82 | 1.05
22 | CCN(CC)CCNC(=O)c1c(C)[nH]c(/C=C2\C(=O)Nc3ccc(F)cc32)c1C [Sunitinib] | 0.82 | 0.62 | 0.55 | 0.73 | 0.74 | 0.77
23 | Cc1c(C)c2c(c(C)c1O)CCC(C)(COc1ccc(CC3SC(=O)NC3=O)cc1)O2 (stereo not given) [Troglitazone (CS-045)] | 1.09 | 0.71 | 0.97 | 0.76 | 0.88 | 0.77
24 | CCOC(=O)/C=C(C)/C=C/C=C(C)/C=C/c1c(C)cc(OC)c(C)c1C [Etretinate] | 1.24 | 1.26 | 0.88 | 1.02 | 0.87 | 0.92
25 | Nc1ccccc1NC(=O)c1ccc(CNc2nccc(-c3cccnc3)n2)cc1 [Mocetinostat (MGCD0103)] | 0.83 | 0.9 | 0.79 | 0.74 | 0.71 | 0.62

Two compounds picked at random from the list so far, as already listed:
Row | Compound | growth ([1]; 1 µM) | growth ([1]; 10 µM) | growth ([2]; 1 µM) | growth ([2]; 10 µM) | growth ([3]; 1 µM) | growth ([3]; 10 µM)
18 | C[C@H](Cn1cnc2c(N)ncnc21)OCP(=O)(O)O [Tenofovir] | 0.84 | 0.99 | 1.03 | 1.03 | 0.95 | 0.78
17 | COC(=O)[C@@H]1CC2=CC(=O)CC[C@]2(C)[C@@]23O[C@@H]2C[C@@]2(C)[C@@H](CC[C@@]24CCC(=O)O4)[C@H]13 [Eplerenone] | 0.97 | 1.21 | 1.17 | 1.53 | 1.12 | 1.34

Reference: the supplement of paper PMC10470496
